Measurements as given in PubChem BioAssay AID328 (DTP/NCI, 2004).
The list is a part of this screen's results and no random one: it gathers tests that were run many times, whatever their T/C, doses with no T/C, and many T/C values between a quarter and a half above the control. Other doses and runs of a compound stand elsewhere. T/C gives the treated animals as a percentage of the vehicle group. Some entries give survivors of the animals treated and no T/C: the source holds a T/C of zero for them, seemingly a mark for toxic or unscored doses. Some survivor counts are full or nearly so, which does not show that the dose was tolerated: survival well below the control is almost never listed, so the zero probably covers shortened survival too. Counts of survivors are from the toxicity check (mostly the fifth day) where no day follows; animals may have died later. Schedules are NCI's codes, taken here to give the interval after Q, in days (D) or hours (H), and the number of doses after X. For survival time, this PubChem deposit counts one and a half times the control or more as active, and values a quarter to a half above the control carry no call in these data; other NCI protocols may use other cut-offs. Some doses were run more than once; the results are listed from low to high. Signs of the kind (2×) stand for listed records that agree. Some T/C values are followed by the survivors on the day toxicity was checked, most often the fifth; where none is given, no animal had died by that day.

System: BDF1 mice, P388 leukemia ip, median survival T/C
Test: NCI In Vivo Anticancer Drug Screen. Data for tumor model P388 Leukemia (intraperitoneal) in B6D2F1 (BDF1) mice
Settings: T/C endpoint: median survival time, higher T/C = longer survival
Outline: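 Compound-treated tumour-bearing mice were compared with vehicle-treated controls. Survival was recorded, and the value is the treated-group measurement divided by the control-group measurement (T/C).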

[1] = dose: 200.0 mg/kg/injection, schedule: Q01DX009 (ip), vehicle: saline with Tween-80
[2] = dose: 25.0 mg/kg/injection, schedule: Q01DX009 (ip), vehicle: saline with Tween-80
[3] = dose: 50.0 mg/kg/injection, schedule: Q01DX009 (ip), vehicle: saline with Tween-80
[4] = dose: 200.0 mg/kg/injection, schedule: Q01DX009 (ip), vehicle: Klucel (hydroxypropylcellulose) (HPC)
[5] = dose: 400.0 mg/kg/injection, schedule: Q01DX009 (ip), vehicle: saline with Tween-80
[6] = dose: 100.0 mg/kg/injection, schedule: Q04DX003 (ip), vehicle: saline
[7] = dose: 200.0 mg/kg/injection, schedule: Q04DX003 (ip), vehicle: saline
[8] = dose: 100.0 mg/kg/injection, schedule: Q01DX009 (ip), vehicle: saline with Tween-80

Compound: CC(=O)N/N=C\C1=CCC=C(Br)S1
- survivor count [1]: 5 of 6

Compound: COc1cc(C=Nc2ccc(C(=O)O)cc2)ccc1N(CCCl)CCCl
- T/C (dose: 3.0 mg/kg/injection, schedule: Q04DX003 (ip), vehicle: saline with Tween-80): 142 % of control
- T/C (dose: 5.0 mg/kg/injection, schedule: Q04DX003 (ip), vehicle: saline with Tween-80): 141 % of control
- T/C [2]: 141 % of control
- T/C [3]: 137 % of control [5 of 6 alive]

Compound: N#CCCCn1nnc(-c2ccccc2)n1
- survivor count [1]: 2 of 6

Compound: COc1ccc(N=NNc2ccc(OC)cc2)cc1
- T/C (dose: 16.5 mg/kg/injection, schedule: Q01DX009 (ip), vehicle: saline with Tween-80): 129 and 145 % of control
- T/C [2]: 140 % of control

Compound: Nc1ccc(Cl)c(Cl)c1
- survivor count (dose: 200.0 mg/kg/injection, schedule: Q01DX009 (ip), vehicle: saline): 4 of 6

Compound: FC(F)(F)/C([S-])=C(/[S-])C(F)(F)F.FC(F)(F)/C([S-])=C(/[S-])C(F)(F)F.FC(F)(F)/C([S-])=C(/[S-])C(F)(F)F.FC(F)(F)/C([S-])=C(/[S-])C(F)(F)F.[Co+3].[Co+3]
- T/C (dose: 50.0 mg/kg/injection, schedule: Q04DX003 (ip), vehicle: other): 140 % of control

Compound: [CH3][Hg][O]C(C)=O
- survivor count (dose: 12.5 mg/kg/injection, schedule: Q01DX009 (ip), vehicle: Klucel (hydroxypropylcellulose) (HPC)): 0 of 6
- survivor count (dose: 25.0 mg/kg/injection, schedule: Q01DX009 (ip), vehicle: Klucel (hydroxypropylcellulose) (HPC)): 0 of 6

Compound: CCCCCC[N+]1(C)CC2C3C=CC(C3)C2C1 (stereo unspecified)
- survivor count (dose: 115.0 mg/kg/injection, schedule: Q01DX009 (ip), vehicle: saline): 0 of 6

Compound: O=C(Nc1ccccc1F)Nc1ccccc1Cl
- T/C (dose: 50.0 mg/kg/injection, schedule: Q01DX009 (ip), vehicle: Klucel (hydroxypropylcellulose) (HPC)): 125 % of control
- T/C (dose: 100.0 mg/kg/injection, schedule: Q01DX009 (ip), vehicle: Klucel (hydroxypropylcellulose) (HPC)): 137 % of control
- T/C [4]: 127 % of control

Compound: O=C1NN=C(c2ccc(Cl)cc2)CS1
- survivor count [1]: 0 of 6

Compound: CCN1c2ccccc2CC(CCN(C)Cc2ccccc2)(C(N)=O)c2ccccc21 (stereo unspecified)
- survivor count [1]: 2 of 6
- survivor count [5]: 0 of 6

Compound: Nc1[nH]c(=O)ncc1[N+](=O)[O-]
- survivor count [1]: 5 of 6

Compound: CC(=O)OCc1cc2cc(O)ccc2nc1C
- survivor count (dose: 25.0 mg/kg/injection, schedule: Q04DX003 (ip), vehicle: saline): 6 of 6
- survivor count (dose: 50.0 mg/kg/injection, schedule: Q04DX003 (ip), vehicle: saline): 6 of 6
- survivor count [6]: 6 of 6
- T/C [7]: 133 % of control

Compound: C/C=C1\CN(C(=O)C(NC(=O)C(N)C(O)C(O)COC(N)=O)C2OC(n3cc(C(=O)O)c(=O)[nH]c3=O)C(O)C2O)C1C(=O)O (stereo unspecified) (tested in a mixture with another compound)
- survivor count (dose: 400.0 mg/kg/injection, schedule: Q01DX008 (ip), vehicle: saline): 6 of 6

Compound: O=C(Nc1ccc(NC2=NCCN2)cc1)c1cccc(C(=O)Nc2ccc(NC3=NCCN3)cc2)c1
- T/C (dose: 8.0 mg/kg/injection, schedule: Q01DX009 (ip), vehicle: saline with Tween-80): 129 % of control
- T/C (dose: 13.2 mg/kg/injection, schedule: Q01DX009 (ip), vehicle: saline with Tween-80): 125 % of control
- T/C (dose: 20.0 mg/kg/injection, schedule: Q01DX009 (ip), vehicle: saline with Tween-80): 140 % of control
- survivor count [6]: 0 of 6
- survivor count [7]: 0 of 6
- survivor count (dose: 400.0 mg/kg/injection, schedule: Q04DX003 (ip), vehicle: saline): 0 of 6

Compound: NC(CSC(c1ccccc1)(c1ccccc1)c1ccc(Cl)cc1)C(=O)O (stereo unspecified)
- survivor count [8]: 6 of 6
- survivor count [1]: 5 of 6

Compound: CC1(C)CC(=O)N/C1=C\C1NC(=O)CC1(C)C (stereo unspecified)
- survivor count [5]: 5 of 6

Compound: CCOC(=O)Oc1c(OC)cc(C(=O)O[C@@H]2C[C@@H]3CN4CCc5c([nH]c6cc(OC)ccc56)[C@H]4C[C@@H]3[C@H](C(=O)OC)[C@H]2OC)cc1OC
- survivor count [3]: 5 of 6
- survivor count [8]: 6 of 6

Compound: COc1cc(C=Nc2ccc(-n3ccnc3C)cc2)ccc1N(CCCl)CCCl
- T/C (dose: 2.0 mg/kg/injection, schedule: Q01DX009 (ip), vehicle: Klucel (hydroxypropylcellulose) (HPC)): 146 % of control
- T/C (dose: 3.3 mg/kg/injection, schedule: Q01DX009 (ip), vehicle: Klucel (hydroxypropylcellulose) (HPC)): 146 % of control

Compound: ClCCn1cnc2c(SCc3ccccc3Cl)ncnc21
- survivor count (dose: 200.0 mg/kg/injection, schedule: Q04DX003 (ip), vehicle: saline with Tween-80): 6 of 6

Compound: CCCN1CSC(=S)N(CCC)C1
- T/C [4]: 130 % of control [5 of 6 alive]
- T/C (dose: 400.0 mg/kg/injection, schedule: Q01DX009 (ip), vehicle: Klucel (hydroxypropylcellulose) (HPC)): 130 % of control [5 of 6 alive]

Compound: COc1ccc(CC2c3cc(OC)c(OC)cc3CCN2C(=O)c2ccccc2)cc1OC (stereo unspecified)
- survivor count (dose: 200.0 mg/kg/injection, schedule: Q01DX005 (ip), vehicle: saline with Tween-80): 6 of 6

Compound: O=C1NN(c2ccccc2)C(=O)/C1=C\c1ccccc1
- T/C (dose: 87.5 mg/kg/injection, schedule: Q01DX009 (ip), vehicle: saline with Tween-80): 129 % of control
- T/C (dose: 175.0 mg/kg/injection, schedule: Q01DX009 (ip), vehicle: saline with Tween-80): 133 % of control
- T/C (dose: 350.0 mg/kg/injection, schedule: Q01DX009 (ip), vehicle: saline with Tween-80): 133 % of control

Compound: CC#CCOCC(O)CCl (stereo unspecified)
- T/C [6]: 135 % of control
- survivor count [7]: 3 of 6
- survivor count (dose: 400.0 mg/kg/injection, schedule: Q01DX009 (ip), vehicle: saline): 0 of 6

Compound: Cc1c[nH]c2nccnc12
- T/C (dose: 12.5 mg/kg/injection, schedule: Q01DX009 (ip), vehicle: water): 127 % of control
- T/C (dose: 25.0 mg/kg/injection, schedule: Q01DX009 (ip), vehicle: water, evaluated on day 20): 102 (2×) and 105 % of control
- T/C (dose: 25.0 mg/kg/injection, schedule: Q01DX009 (ip), vehicle: water, evaluated on day 22): 117 % of control
